Results on 2 molecules are retold here after article PMC5601125.

By UniProt entry, the sequences of proteins in these tests, tags left out.
UniProt O00401: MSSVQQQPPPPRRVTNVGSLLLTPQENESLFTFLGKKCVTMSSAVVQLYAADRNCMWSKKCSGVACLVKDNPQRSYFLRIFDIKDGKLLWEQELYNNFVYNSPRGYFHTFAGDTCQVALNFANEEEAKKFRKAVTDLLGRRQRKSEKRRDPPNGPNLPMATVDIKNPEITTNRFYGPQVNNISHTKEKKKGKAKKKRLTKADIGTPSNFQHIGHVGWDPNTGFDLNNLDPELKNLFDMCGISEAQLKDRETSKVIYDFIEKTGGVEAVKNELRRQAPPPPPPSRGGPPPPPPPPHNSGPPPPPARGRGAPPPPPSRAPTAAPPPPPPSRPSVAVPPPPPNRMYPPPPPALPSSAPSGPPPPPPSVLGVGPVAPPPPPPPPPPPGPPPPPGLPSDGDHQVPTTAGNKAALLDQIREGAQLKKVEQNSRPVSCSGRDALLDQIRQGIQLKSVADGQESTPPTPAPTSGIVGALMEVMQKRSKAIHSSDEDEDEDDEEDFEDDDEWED

These are yes or no findings as the source states them, for the method shown. In cells and extracts the contact can be indirect. Some binding calls cover weakened binding; strength is not graded here.

In assay [1] the target is ERBB2 receptor (human (endogenous in SK-BR-3)) (UniProt P04626). Kind of assay: co-IP; as a1 but 20 min of Tz treatment of live starved SK-BR-3 cells; Tz bound to ERBB2 precipitated with Protein A-Sepharose CL-4B; N-WASP and ERBB2 detected by western blot.
For assay [2] the target is unchanged. Kind of assay: co-IP; Tz (10 ug/ml, serum-free medium) given to live starved SK-BR-3 cells for 2 min, with or without 10 uM U0126; Tz bound to ERBB2 precipitated from the lysate with Protein A-Sepharose CL-4B; N-WASP and ERBB2 detected by western blot. (In general: In western blotting, separated proteins are transferred to a membrane and probed.)
The target is the same in assay [3]. The assay is described as follows: co-IP; ERBB2 immunoprecipitated with Tz and Protein A-Sepharose from SK-BR-3 wild type cells and SK-BR-3 cells silenced for ERBB1 (siRNA #1); ERBB2 and p140Cap detected by immunoblot; time of Tz treatment not told.

Take N-WASP (from UniProt O00401 1-505): the binding entry in assay [1] is recorded as “no binding (condition: after 20 min of Tz treatment)”; in assay [2], “binds”.

B1: p140Cap (protein, UniProt Q9C0H9 1-1183)
chain: MGNAPSQDPERSSPPMLSADDAEYPREYRTLGGGGGGGSGGRRFSNVGLVHTSERRHTVIAAQSLEALSGLQKADADRKRDAFMDHLKSKYPQHALALRGQQDRMREQPNYWSFKTRSSRHTQGAQPGLADQAAKLSYASAESLETMSEAELPLGFSRMNRFRQSLPLSRSASQTKLRSPGVLFLQFGEETRRVHITHEVSSLDTLHALIAHMFPQKLTMGMLKSPNTAILIKDEARNVFYELEDVRDIQDRSIIKIYRKEPLYAAFPGSHLTNGDLRREMVYASRESSPTRRLNNLSPAPHLASGSPPPGLPSGLPSGLQSGSPSRSRLSYAGGRPPSYAGSPVHHAAERLGGAPAAQGVSPSPSAILERRDVKPDEDLASKAGGMVLVKGEGLYADPYGLLHEGRLSLAAAAGDPFAYPGAGGLYKRGSVRSLSTYSAAALQSDLEDSLYKAAGGGGPLYGDGYGFRLPPSSPQKLADVAAPPGGPPPPHSPYSGPPSRGSPVRQSFRKDSGSSSVFAESPGGKTRSAGSASTAGAPPSELFPGPGERSLVGFGPPVPAKDTETRERMEAMEKQIASLTGLVQSALLRGSEPETPSEKIEGSNGAATPSAPCGSGGRSSGATPVSGPPPPSASSTPAGQPTAVSRLQMQLHLRGLQNSASDLRGQLQQLRKLQLQNQESVRALLKRTEAELSMRVSEAARRQEDPLQRQRTLVEEERLRYLNDEELITQQLNDLEKSVEKIQRDVSHNHRLVPGPELEEKALVLKQLGETLTELKAHFPGLQSKMRVVLRVEVEAVKFLKEEPQRLDGLLKRCRGVTDTLAQIRRQVDEGVWPPPNNLLSQSPKKVTAETDFNKSVDFEMPPPSPPLNLHELSGPAEGASLTPKGGNPTKGLDTPGKRSVDKAVSVEAAERDWEEKRAALTQYSAKDINRLLEETQAELLKAIPDLDCASKAHPGPAPTPDHKPPKAPHGQKAAPRTEPSGRRGSDELTVPRYRTEKPSKSPPPPPPRRSFPSSHGLTTTRTGEVVVTSKKDSAFIKKAESEELEVQKPQVKLRRAVSEVARPASTPPIMASAIKDEDDEDRIIAELESGGGSVPPMKVVTPGASRLKAAQGQAGSPDKSKHGKQRAEYMRIQAQQQATKPSKEMSGSNETSSPVSEKPSASRTSIPVLTSFGARNSSISF
Regarding B1, the binding entry in assay [3] was “binds”.
